No constants are given. Whether binding was seen depends on the method and setting. In cells and extracts the contact can be indirect. Some binding calls cover weakened binding; strength is not graded here.
Molecular target: glucocorticoid receptor (GR) (human (endogenous in PBMCs)) (UniProt P04150)
Test: co-IP; co-immunoprecipitation with anti-GR or control antibody from PBMCs (obtained at 6 am from healthy subjects) cultured ex vivo in the absence or presence of 5x10^-7 M hydrocortisone for 3 hours; Clock detected by Western blot

By UniProt entry, the sequences of proteins in these tests, tags left out.
UniProt P04150: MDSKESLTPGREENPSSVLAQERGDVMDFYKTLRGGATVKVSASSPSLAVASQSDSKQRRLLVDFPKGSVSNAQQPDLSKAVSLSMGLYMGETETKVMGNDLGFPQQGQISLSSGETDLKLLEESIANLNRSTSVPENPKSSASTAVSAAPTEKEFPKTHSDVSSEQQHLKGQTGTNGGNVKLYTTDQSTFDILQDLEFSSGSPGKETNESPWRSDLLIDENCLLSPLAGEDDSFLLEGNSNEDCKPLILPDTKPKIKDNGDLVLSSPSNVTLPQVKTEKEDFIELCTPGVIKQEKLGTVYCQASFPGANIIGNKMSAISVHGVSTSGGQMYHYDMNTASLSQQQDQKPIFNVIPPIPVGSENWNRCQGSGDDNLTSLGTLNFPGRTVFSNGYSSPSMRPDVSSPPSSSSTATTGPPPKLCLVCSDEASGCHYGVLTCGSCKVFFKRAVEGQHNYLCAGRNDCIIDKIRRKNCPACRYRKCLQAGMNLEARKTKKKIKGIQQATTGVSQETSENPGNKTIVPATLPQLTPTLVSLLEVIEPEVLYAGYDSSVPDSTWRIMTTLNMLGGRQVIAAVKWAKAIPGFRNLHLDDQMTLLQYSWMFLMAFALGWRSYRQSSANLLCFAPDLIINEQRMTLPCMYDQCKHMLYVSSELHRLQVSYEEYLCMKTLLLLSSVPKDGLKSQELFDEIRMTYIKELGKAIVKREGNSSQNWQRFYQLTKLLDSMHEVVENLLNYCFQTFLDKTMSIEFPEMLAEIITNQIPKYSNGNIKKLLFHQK

binding: binds
B1: circadian locomotor output cycle kaput (Clock) (protein, UniProt O15516 1-846)
chain: MLFTVSCSKMSSIVDRDDSSIFDGLVEEDDKDKAKRVSRNKSEKKRRDQFNVLIKELGSMLPGNARKMDKSTVLQKSIDFLRKHKEITAQSDASEIRQDWKPTFLSNEEFTQLMLEALDGFFLAIMTDGSIIYVSESVTSLLEHLPSDLVDQSIFNFIPEGEHSEVYKILSTHLLESDSLTPEYLKSKNQLEFCCHMLRGTIDPKEPSTYEYVKFIGNFKSLNSVSSSAHNGFEGTIQRTHRPSYEDRVCFVATVRLATPQFIKEMCTVEEPNEEFTSRHSLEWKFLFLDHRAPPIIGYLPFEVLGTSGYDYYHVDDLENLAKCHEHLMQYGKGKSCYYRFLTKGQQWIWLQTHYYITYHQWNSRPEFIVCTHTVVSYAEVRAERRRELGIEESLPETAADKSQDSGSDNRINTVSLKEALERFDHSPTPSASSRSSRKSSHTAVSDPSSTPTKIPTDTSTPPRQHLPAHEKMVQRRSSFSSQSINSQSVGSSLTQPVMSQATNLPIPQGMSQFQFSAQLGAMQHLKDQLEQRTRMIEANIHRQQEELRKIQEQLQMVHGQGLQMFLQQSNPGLNFGSVQLSSGNSSNIQQLAPINMQGQVVPTNQIQSGMNTGHIGTTQHMIQQQTLQSTSTQSQQNVLSGHSQQTSLPSQTQSTLTAPLYNTMVISQPAAGSMVQIPSSMPQNSTQSAAVTTFTQDRQIRFSQGQQLVTKLVTAPVACGAVMVPSTMLMGQVVTAYPTFATQQQQSQTLSVTQQQQQQSSQEQQLTSVQQPSQAQLTQPPQQFLQTSRLLHGNPSTQLILSAAFPLQQSTFPQSHHQQHQSQQQQQLSRHRTDSLPDPSKVQPQ
